This is one part of the list. These are further read-outs of the screen, such as a control signal, another cell line or another target. No call is given for them. The list favours compounds with an active or inconclusive main result. Potencies come from curve fits of mixed quality, noted in brackets.
Test: qHTS Assay to Find Inhibitors of Chronic Active B-Cell Receptor Signaling
Settings: ABC-DLBCL IkBa-CBG/CBR reporter, luminescence ratio (green luciferase fused to IkBa over red control in TMD8 lymphoma cells), 4 h
Outline: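 Compounds up to 46 uM were incubated four hours with TMD8 cells whose green CBG68 luciferase is fused to IkappaBalpha; red CBR luminescence normalised the signal, and concentration-effect curves were fitted to fusion, red and ratio data.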

[1] = measured here: CBR red luminescence, cell number
[2] = measured here: IkBa-CBG green luminescence

Row | SMILES | AC50 [1] | AC50 [2]
1 | Cc1ccc2c(c1)c1c(n2CC2COC(C)(C)O2)C(=O)CCC1 (centres undefined) | 0.891 µM [rising, full curve, poor fit] | 
2 | NC(=O)C1CCCN(C(=O)c2ccc3nc(Cc4cccc(Cl)c4)oc3c2)C1 (centres undefined) | 0.316 µM [falling, full curve, poor fit] | 
3 | CCc1cc(=O)[nH]c(SCc2cccc3ccccc23)n1 | 14.1 µM [falling, partial curve, poor fit] | 
4 | O=C(NNC(=O)c1cc(Br)c(Br)s1)c1ccncc1 | 16.4 µM [falling, partial curve] | 
5 | CC(=O)OC[C@H]1O[C@@H](Sc2cccc3cccnc23)[C@H](OC(C)=O)[C@@H](OC(C)=O)[C@H]1OC(C)=O | 23.1 µM [rising, partial curve, poor fit] | 18.4 µM [falling, single point]
6 | Brc1ccc(N/N=C(/N=Nc2nn[nH]n2)c2ccccc2)cc1 | 0.447 µM [rising, full curve, poor fit] | 
7 | CSc1cccc(NC(=O)c2cccc3cccnc23)c1 | 5.01 µM [rising, partial curve, poor fit] | 
8 | COc1ccc(NC(=O)c2cc3ccccc3o2)c(OC)c1 | 7.08 µM [falling, partial curve, poor fit] | 
9 | Cc1ccc(NS(=O)(=O)c2ccc(NC(=O)C3CC3)cc2)c(C)c1 | 15.8 µM [falling, single point] | 
10 | Cn1ccnc1SCC(=O)Nc1cccc(O)c1 | 25.9 µM [rising, single point] | 
11 | CCN(CCO)C(=S)Nc1cc(C(=O)OC)ccc1C(=O)OC | 14.6 µM [rising, partial curve, poor fit] | 
12 | Cc1ccc(C2(C)NC(=O)N(CC(=O)NNC(=O)c3ccccc3F)C2=O)cc1 (centres undefined) | 6.51 µM [rising, single point] | 
13 | CC/C(=C\c1oc2cc3ccccc3cc2[n+]1CC)Nc1ccccc1 | 22.4 µM [falling, single point] | 25.1 µM [rising, partial curve, poor fit]
14 | O=C(N/N=C/c1ccc(F)cc1)c1ccc(Br)cc1 | 35.5 µM [falling, single point] | 
15 | CCC(=O)c1ccc(N2CCCC2)c(F)c1 | 29.1 µM [rising, single point] | 
16 | COc1cc(Cl)c(C)cc1NC(=O)CC1CCCC1 | 3.16 µM [rising, full curve, poor fit] | 
17 | COc1cccc(/C=C/C(=O)OCC(=O)Nc2nnc(-c3ccccc3)o2)c1 | 8.2 µM [rising, partial curve] | 

Another view of two compounds above.
Row	SMILES	AC50 [1]	AC50 [2]
1	Cc1ccc2c(c1)c1c(n2CC2COC(C)(C)O2)C(=O)CCC1 (centres undefined)	0.891 µM [rising, full curve, poor fit]	
2	NC(=O)C1CCCN(C(=O)c2ccc3nc(Cc4cccc(Cl)c4)oc3c2)C1 (centres undefined)	0.316 µM [falling, full curve, poor fit]	

From PubChem BioAssay AID493014 (National Center for Advancing Translational Sciences (NCATS), 2011)
